Test [1] deals with Dcc (endogenous, cerebellar granule neurons) (mouse (endogenous in cerebellar granule neurons)) (UniProt P70211). Put plainly: proximity ligation; Duolink on dissociated CGNs plated on laminin, cultured 24 h at 37 C, fixed in 2% PFA/0.5% glutaraldehyde; antibody pairs Dcc ECD + JamC ECD and Dcc ICD + Pard3; controls with no or one primary antibody.
The target in test [2] is T1, JamC (bait of Figure S4A) (mouse) (UniProt Q9D8B7).
T1 sequence: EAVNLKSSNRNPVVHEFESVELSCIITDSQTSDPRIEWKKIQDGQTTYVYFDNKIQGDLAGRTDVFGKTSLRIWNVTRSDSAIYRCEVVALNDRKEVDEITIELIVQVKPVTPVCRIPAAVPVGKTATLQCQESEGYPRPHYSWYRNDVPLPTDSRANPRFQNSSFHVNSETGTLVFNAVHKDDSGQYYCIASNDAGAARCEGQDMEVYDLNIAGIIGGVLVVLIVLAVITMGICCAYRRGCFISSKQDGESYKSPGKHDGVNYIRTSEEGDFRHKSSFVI
Put plainly: co-IP; JamC as bait, Dcc extracellular or intracellular domain as prey (Figure S4A); details not shown.

Amino acid sequences for entries named in this document (tags omitted). A change or cut given only in a name is not applied to a line headed by its entry. Residues count along the entry.
UniProt P70211: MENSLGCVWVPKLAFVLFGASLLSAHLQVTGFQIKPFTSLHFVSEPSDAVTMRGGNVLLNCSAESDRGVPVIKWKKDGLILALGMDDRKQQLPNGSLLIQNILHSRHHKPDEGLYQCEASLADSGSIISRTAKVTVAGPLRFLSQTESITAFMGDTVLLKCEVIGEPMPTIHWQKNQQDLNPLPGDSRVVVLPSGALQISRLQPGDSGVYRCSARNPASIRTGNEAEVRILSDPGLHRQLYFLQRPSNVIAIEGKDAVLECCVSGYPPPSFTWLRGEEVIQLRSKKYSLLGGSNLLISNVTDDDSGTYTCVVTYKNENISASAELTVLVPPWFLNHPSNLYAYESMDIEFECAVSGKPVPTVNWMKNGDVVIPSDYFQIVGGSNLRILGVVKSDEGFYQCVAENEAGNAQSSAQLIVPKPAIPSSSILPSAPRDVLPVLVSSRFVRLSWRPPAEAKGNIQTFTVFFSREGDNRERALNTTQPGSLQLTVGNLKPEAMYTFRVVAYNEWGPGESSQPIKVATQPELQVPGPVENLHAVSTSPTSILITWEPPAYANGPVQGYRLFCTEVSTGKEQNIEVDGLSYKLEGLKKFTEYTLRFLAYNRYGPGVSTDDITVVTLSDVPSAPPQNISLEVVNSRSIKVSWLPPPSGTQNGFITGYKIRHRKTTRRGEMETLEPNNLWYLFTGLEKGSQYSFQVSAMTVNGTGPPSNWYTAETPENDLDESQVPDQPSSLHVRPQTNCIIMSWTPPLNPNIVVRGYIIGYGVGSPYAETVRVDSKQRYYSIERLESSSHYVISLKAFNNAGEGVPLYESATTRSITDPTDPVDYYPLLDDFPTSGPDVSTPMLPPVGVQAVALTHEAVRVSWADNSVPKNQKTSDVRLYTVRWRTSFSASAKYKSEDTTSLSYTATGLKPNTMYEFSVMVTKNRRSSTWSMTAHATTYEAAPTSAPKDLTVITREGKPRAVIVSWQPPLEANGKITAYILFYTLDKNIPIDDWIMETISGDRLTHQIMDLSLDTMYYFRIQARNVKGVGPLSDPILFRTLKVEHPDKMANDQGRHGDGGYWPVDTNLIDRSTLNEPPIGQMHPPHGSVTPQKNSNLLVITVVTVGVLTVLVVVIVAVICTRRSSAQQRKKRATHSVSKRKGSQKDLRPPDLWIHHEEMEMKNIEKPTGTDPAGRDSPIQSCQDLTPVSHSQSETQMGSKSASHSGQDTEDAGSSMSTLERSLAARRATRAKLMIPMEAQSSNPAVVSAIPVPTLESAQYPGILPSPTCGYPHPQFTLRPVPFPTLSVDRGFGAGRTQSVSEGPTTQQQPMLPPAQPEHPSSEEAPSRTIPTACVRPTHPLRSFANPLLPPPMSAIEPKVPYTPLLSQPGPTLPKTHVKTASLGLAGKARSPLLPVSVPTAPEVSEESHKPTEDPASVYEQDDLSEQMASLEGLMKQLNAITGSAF
Dcc (endogenous, cerebellar granule neurons) (mouse (endogenous in cerebellar granule neurons)): residues 26-1447 of P70211
UniProt Q99NH2: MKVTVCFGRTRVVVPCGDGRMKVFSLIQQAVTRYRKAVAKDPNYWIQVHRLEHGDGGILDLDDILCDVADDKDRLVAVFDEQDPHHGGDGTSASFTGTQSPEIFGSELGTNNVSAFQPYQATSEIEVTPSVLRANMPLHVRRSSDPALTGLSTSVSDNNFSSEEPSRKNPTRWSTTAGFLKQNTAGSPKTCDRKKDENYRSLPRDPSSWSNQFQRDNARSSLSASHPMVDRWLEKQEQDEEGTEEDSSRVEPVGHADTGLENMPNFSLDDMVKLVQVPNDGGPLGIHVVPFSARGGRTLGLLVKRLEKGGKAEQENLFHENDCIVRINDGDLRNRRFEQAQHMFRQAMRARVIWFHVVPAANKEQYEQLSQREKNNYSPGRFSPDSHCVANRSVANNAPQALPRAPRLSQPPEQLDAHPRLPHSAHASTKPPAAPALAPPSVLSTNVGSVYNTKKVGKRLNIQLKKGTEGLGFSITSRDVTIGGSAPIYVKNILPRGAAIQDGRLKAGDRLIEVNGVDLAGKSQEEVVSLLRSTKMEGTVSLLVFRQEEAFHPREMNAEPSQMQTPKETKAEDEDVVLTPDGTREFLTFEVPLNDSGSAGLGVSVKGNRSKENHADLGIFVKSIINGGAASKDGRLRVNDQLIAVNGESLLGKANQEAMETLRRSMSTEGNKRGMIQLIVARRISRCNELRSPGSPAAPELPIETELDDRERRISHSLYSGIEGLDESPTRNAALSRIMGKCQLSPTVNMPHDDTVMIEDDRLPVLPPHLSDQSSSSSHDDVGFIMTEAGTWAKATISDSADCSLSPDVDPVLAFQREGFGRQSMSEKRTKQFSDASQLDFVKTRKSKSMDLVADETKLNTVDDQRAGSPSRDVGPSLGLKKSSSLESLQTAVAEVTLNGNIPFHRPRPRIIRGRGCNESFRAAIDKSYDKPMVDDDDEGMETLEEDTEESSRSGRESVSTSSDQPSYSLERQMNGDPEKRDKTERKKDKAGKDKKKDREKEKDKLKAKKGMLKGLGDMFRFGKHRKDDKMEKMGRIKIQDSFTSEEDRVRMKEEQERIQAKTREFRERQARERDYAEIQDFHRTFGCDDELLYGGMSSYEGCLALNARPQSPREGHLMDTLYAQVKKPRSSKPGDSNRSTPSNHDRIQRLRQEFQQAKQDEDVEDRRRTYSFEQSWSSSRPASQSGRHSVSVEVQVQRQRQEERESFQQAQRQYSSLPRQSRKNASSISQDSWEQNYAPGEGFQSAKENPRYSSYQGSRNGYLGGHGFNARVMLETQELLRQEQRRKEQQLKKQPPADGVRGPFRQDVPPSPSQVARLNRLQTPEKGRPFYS

Results are given in words; binding and its absence hold for the method and conditions named. Binding seen in cells or lysates may run through a third protein. Some entries that bind do so weakly or less than the wild type.

As for “Pard3 (endogenous, cerebellar granule neurons) (from UniProt Q99NH2 1-1333)”, the binding entry in test [1] was “binds”.

On to “extracellular domain of Dcc (from UniProt P70211 26-1097) (domain or fragment)”, for which the binding result in test [2] is recorded as “binds”.

Source of the values: paper PMC11469462.
